Experimental data: PubChem BioAssay AID1508588 (Peter MacCallum Cancer Centre, 2020)
Here is an unselected part of about 18,000 deposited reagents. 790 of them (4.4%) count as active. 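Calls rest on a combination of fold-change classes in drug and vehicle arms, not all shown here.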 No sequences are given here.

Purpose: 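Which gene losses make BRAF-mutant melanoma cells more responsive to vemurafenib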 (primary screen)
Cell system: human WM266.4 melanoma cells (BRAF V600 mutant)
Reagent: siRNA pool against human genes, 40 nM
Time to read-out: 96 h from transfection to read-out
Challenge: vemurafenib 300 nM (about IC25), added 48 h after transfection, for 48 h; comparison arm got DMSO vehicle only
Measured: 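Cell gain (DAPI nuclei at end minus before drug, mean of two replicates) and medium lactate by absorbance per cell, both as ratio to non-targeting siRNA, also grouped into fold-change classes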
Reading the numbers: cell gain with vemurafenib: higher = more cell gain than with non-targeting siRNA; lactate per cell with vemurafenib: higher = more lactate made per cell
Call rule: 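a knock-down counts as enhancing when its fold-change classes with vehicle and with vemurafenib, taken together, show a stronger drug effect on cell gain or lactate per cell; exact class pairs not stated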
Calls: active = enhances vemurafenib effect; inactive = no enhancement seen

gene | PubChem SID | cell gain with vemurafenib | lactate per cell with vemurafenib | call
ABI3 (GeneID 51225) | SID134317409 | 0.51 | 0.37 | inactive
LETMD1 (GeneID 25875) | SID135623236 | 0.39 | 1.98 | inactive
USP32 (GeneID 84669) | SID135621139 | 0.54 | 0.52 | inactive
NAP1L2 (GeneID 4674) | SID152148503 | 0.72 | 2.25 | inactive
ZC3H10 (GeneID 84872) | SID134319062 | 0.28 | 1.13 | inactive
ATPAF1 (GeneID 64756) | SID135622598 | 0.75 | 0.96 | inactive
TMX3 (GeneID 54495) | SID152154433 | 0.63 | 0.82 | inactive
OR4X2 (GeneID 119764) | SID152156381 | 0.64 | 1.36 | inactive
LOC652859 (retired record) (GeneID 652859) | SID152150750 | 1.05 | 0.82 | inactive
GZMB (GeneID 3002) | SID135621094 | 0.36 | 1.66 | inactive
NUP54 (GeneID 53371) | SID135623354 | 0.49 | 0.81 | inactive
DUX4L1 (GeneID 22947) | SID134319136 | 0.58 | 1.23 | inactive
RUFY4 (GeneID 285180) | SID152152638 | 0.19 | 0.7 | active
HJV (GeneID 148738) | SID135623587 | 0.61 | 1.13 | inactive
DHRS7B (GeneID 25979) | SID152150200 | 0.22 | 1.27 | inactive
ARHGAP35 (GeneID 2909) | SID152151286 | 0.82 | 0.69 | inactive
PBLD (GeneID 64081) | SID135622630 | 1.2 | 1.04 | inactive
HAP1 (GeneID 9001) | SID152151018 | 0.43 | 0.54 | inactive
ZNF704 (GeneID 619279) | SID135625417 | 0.81 | 0.44 | inactive
SFT2D1 (GeneID 113402) | SID134320200 | 0.72 | 0.48 | active
NOL12 (GeneID 79159) | SID152148570 | 0.37 | 1.14 | inactive
SAMD1 (GeneID 90378) | SID134327382 | 0.58 | 0.83 | inactive
TMPRSS13 (GeneID 84000) | SID152150916 | 0.59 | 1.15 | inactive
KLHL34 (GeneID 257240) | SID134319893 | 0.95 | 0.66 | inactive
USP31 (GeneID 57478) | SID152156132 | 0.62 | 0.73 | inactive
SMPDL3B (GeneID 27293) | SID135621894 | 0.78 | 0.96 | inactive
ADAM29 (GeneID 11086) | SID152154041 | 0.04 | 1.66 | inactive
SERPINI1 (GeneID 5274) | SID152150056 | -0.05 | 2 | inactive
KIF1A (GeneID 547) | SID134314832 | 0.39 | 1.62 | inactive
DEFB132 (GeneID 400830) | SID134329622 | -0.04 | 1.68 | inactive
CDH13 (GeneID 1012) | SID152149731 | 0.52 | 1.01 | inactive
FAHD2A (GeneID 51011) | SID152152241 | 0.19 | 1.4 | inactive
SHPK (GeneID 23729) | SID135621260 | 0.81 | 0.76 | inactive
AKAP8 (GeneID 10270) | SID56479229 | 0.18 | 1.36 | inactive
CARD18 (GeneID 59082) | SID134314607 | 0.95 | 0.9 | inactive
MBNL1 (GeneID 4154) | SID135622677 | 0.42 | 1.06 | inactive
BMAL2 (GeneID 56938) | SID134314047 | 0.6 | 1.28 | inactive
USP40 (GeneID 55230) | SID152147294 | 0.19 | 2.29 | inactive
PPM1J (GeneID 333926) | SID152156624 | 0.48 | 0.31 | inactive
ACTRT3 (GeneID 84517) | SID135622941 | 0.88 | 0.91 | inactive
HADHA (GeneID 3030) | SID135621783 | 1.17 | 0.64 | inactive
MMGT1 (GeneID 93380) | SID152149282 | 0.34 | 0.62 | inactive
PGLYRP1 (GeneID 8993) | SID134314014 | 0.43 | 1.02 | inactive
DEFB127 (GeneID 140850) | SID134321205 | 0 | 1.02 | active
CCNF (GeneID 899) | SID152147986 | 1 | 0.74 | inactive
CDY1B (GeneID 253175) | SID134329830 | 0.38 | 1.96 | inactive
FAF1 (GeneID 11124) | SID134313936 | 0.77 | 0.68 | inactive
GHRHR (GeneID 2692) | SID135621010 | 0.21 | 1.52 | inactive
ELK4 (GeneID 2005) | SID134314888 | 0.63 | 0.77 | inactive
AKNAD1 (GeneID 254268) | SID152156008 | 0.59 | 0.86 | inactive
KIF4A (GeneID 24137) | SID135620918 | 0.08 | 2.58 | inactive
UBE2L6 (GeneID 9246) | SID135621596 | 0.78 | 1.2 | inactive
CEACAM8 (GeneID 1088) | SID152152441 | 0.51 | 0.52 | inactive
RSPO2 (GeneID 340419) | SID135623413 | 0.73 | 0.55 | inactive
DSG3 (GeneID 1830) | SID152152691 | 0.28 | 0.99 | inactive
SOX7 (GeneID 83595) | SID134322841 | 0.19 | 1.17 | inactive
MFN2 (GeneID 9927) | SID134317204 | 0.56 | 0.92 | inactive
GARIN4 (GeneID 149647) | SID152147612 | 0.28 | 0.4 | active
PPP1R17 (GeneID 10842) | SID56479279 | 0.23 | 0.78 | inactive
GCH1 (GeneID 2643) | SID152148432 | 0.64 | 0.56 | inactive
CLEC3A (GeneID 10143) | SID152148636 | 0.5 | 1.55 | inactive
PIK3AP1 (GeneID 118788) | SID152147752 | 0.57 | 0.62 | inactive
OGA (GeneID 10724) | SID152155699 | 0.67 | 1.66 | inactive
SDHB (GeneID 6390) | SID135622194 | 1 | 0.4 | inactive
SH3RF2 (GeneID 153769) | SID134312266 | 0.88 | 0.98 | inactive
ITK (GeneID 3702) | SID135620623 | 0.98 | 0.54 | inactive
SDCCAG8 (GeneID 10806) | SID135622387 | 0.18 | 0.14 | active
RAI2 (GeneID 10742) | SID134316577 | 0.6 | 0.78 | inactive
YBX2 (GeneID 51087) | SID152155003 | 1.09 | 0.77 | inactive
ADRB1 (GeneID 153) | SID152148434 | 0.83 | 0.34 | inactive
PURB (GeneID 5814) | SID135622595 | 0.66 | 0.77 | inactive
ALPI (GeneID 248) | SID152149362 | 0.84 | 0.64 | inactive
AMOT (GeneID 154796) | SID135622946 | 0.83 | 1.09 | inactive
SLC2A5 (GeneID 6518) | SID134312564 | 0.37 | 0.88 | inactive
CLDN17 (GeneID 26285) | SID134323740 | 0.59 | 1.07 | inactive
EIF3G (GeneID 8666) | SID152149318 | 0.2 | 0.91 | inactive
INPP5D (GeneID 3635) | SID152151778 | 0.74 | 1.35 | inactive
EIF5B (GeneID 9669) | SID135622505 | 0.35 | 0.52 | inactive
UGT2A1 (GeneID 10941) | SID152154738 | 1.04 | 1.19 | inactive
IL2RB (GeneID 3560) | SID134312918 | 0 | 3.64 | inactive
CHAC1 (GeneID 79094) | SID135622715 | 0.59 | 0.57 | inactive
MTPN (GeneID 136319) | SID135623213 | 0.52 | 1.05 | inactive
WASHC3 (GeneID 51019) | SID152155860 | 0.46 | 1.52 | inactive
ZNG1E (GeneID 220869) | SID135624527 | 0.7 | 1.67 | inactive
CFAP70 (GeneID 118491) | SID134320386 | 0.64 | 1.66 | inactive
C14orf184 (retired record) (GeneID 650662) | SID135625527 | 0.63 | 1.62 | inactive
CD3D (GeneID 915) | SID135623939 | 0.79 | 0.83 | inactive
BNIP3L (GeneID 665) | SID134316132 | 0.42 | 0.53 | inactive
IBA57 (GeneID 200205) | SID152153729 | 0.24 | 1.93 | inactive
ICE2 (GeneID 79664) | SID135622730 | 0.77 | 0.9 | inactive
SUPT6H (GeneID 6830) | SID152148354 | -0.04 | 1.75 | inactive
C1orf174 (GeneID 339448) | SID135624252 | 0.66 | 1.08 | inactive
RANBP10 (GeneID 57610) | SID134325436 | 0.31 | 0.82 | inactive
ZNF782 (GeneID 158431) | SID135625230 | 0.71 | 1.14 | inactive
ZDHHC19 (GeneID 131540) | SID152150061 | 0.67 | 0.94 | inactive
BNC1 (GeneID 646) | SID152154355 | 0.57 | 0.66 | inactive
TTLL12 (GeneID 23170) | SID152154520 | 0.22 | 0.67 | inactive
FOXO1 (GeneID 2308) | SID152151151 | 0.78 | 1.22 | inactive
SLC22A4 (GeneID 6583) | SID152147259 | 0.83 | 0.84 | inactive
SURF1 (GeneID 6834) | SID134316104 | 0.61 | 1.11 | inactive
KLF3 (GeneID 51274) | SID152148591 | 0.42 | 0.88 | inactive
LLPH (GeneID 84298) | SID134322462 | 0.9 | 1.2 | inactive
RAD23B (GeneID 5887) | SID152155564 | 0.51 | 1.16 | inactive
MFSD2B (GeneID 388931) | SID135624719 | 0.52 | 1.42 | inactive
GFRA4 (GeneID 64096) | SID152147361 | 0.71 | 0.46 | active
PTK2 (GeneID 5747) | SID56478542 | 0.18 | 1 | inactive
ATXN2L (GeneID 11273) | SID152149522 | 0.74 | 0.1 | active
